For assay [1], the target named is T1, C-terminal cytoplasmic domain of calnexin (C-tail), fused to the GAL4 DNA-binding domain (pGBKT7-CNX-C) (mouse) (UniProt P35564).
T1 sequence: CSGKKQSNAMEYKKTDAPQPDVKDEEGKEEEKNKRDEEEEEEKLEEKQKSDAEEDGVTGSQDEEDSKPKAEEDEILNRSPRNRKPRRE
The experiment in a line: two-hybrid; pGBKT7 with calnexin C-tail and pGADT7 with SGIP1 or SGIP1 domains in strain AH109; growth on SD/-Leu/-Trp/-His/-Ade and filter lift assays.

Another assay addresses GFP-SGIP1 (mouse). The experiment in a line: co-IP; N1E-115 cells transfected with GFP-SGIP1 or GFP, lysed in RIPA buffer (50 mM Tris pH 7.4, 150 mM NaCl, 1% NP-40, 0.25% sodium deoxycholate, 1 mM EDTA); immunoprecipitation with anti-GFP, Western blot with anti-calnexin. On the technique in general: In western blotting, separated proteins are transferred to a membrane and probed.

Results are given in words; binding and its absence hold for the method and conditions named. Binding can be weak; no strength is given. For part of these data: Tags and fused reporters may be left off the sequences shown. For part of these data: In cells and extracts the contact can be indirect.

The source of these data is article PMC3128601.

As to “SGIP1 Adap-Comp-Sub domain (amino acid residues 647-826) in pGADT7 (mouse) (domain or fragment)”, in assay [1], the binding entry is “binds”.
For the molecule “SGIP1 in pGADT7 (yeast two-hybrid prey) (mouse)”, in assay [1], the binding entry is on record as “binds”.

B1: calnexin (endogenous) (protein, UniProt P35564 21-591)
chain: HDGHDDDAIDIEDDLDDVIEEVEDSKSKSDASTPPSPKVTYKAPVPTGEVYFADSFDRGSLSGWILSKAKKDDTDDEIAKYDGKWEVDEMKETKLPGDKGLVLMSRAKHHAISAKLNKPFLFDTKPLIVQYEVNFQNGIECGGAYVKLLSKTAELSLDQFHDKTPYTIMFGPDKCGEDYKLHFIFRHKNPKTGVYEEKHAKRPDADLKTYFTDKKTHLYTLILNPDNSFEILVDQSVVNSGNLLNDMTPPVNPSREIEDPEDRKPEDWDERPKIADPDAVKPDDWDEDAPSKIPDEEATKPEGWLDDEPEYIPDPDAEKPEDWDEDMDGEWEAPQIANPKCESAPGCGVWQRPMIDNPNYKGKWKPPMIDNPNYQGIWKPRKIPNPDFFEDLEPFKMTPFSAIGLELWSMTSDIFFDNFIISGDRRVVDDWANDGWGLKKAADGAAEPGVVLQMLEAAEERPWLWVVYILTVALPVFLVILFCCSGKKQSNAMEYKKTDAPQPDVKDEEGKEEEKNKRDEEEEEEKLEEKQKSDAEEDGVTGSQDEEDSKPKAEEDEILNRSPRNRKPRRE
Take B1: in the assay with GFP-SGIP1 (mouse), the binding entry is “binds”.
